This is one part of the list. Single values are uncertain, as repeats are few or missing.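 Test system: a mixed pool of 41 HAP1 clones in which 61 cancer-associated proteins carry fluorescent tags inserted into introns, and each clone is identified from its image pattern. Read-outs are compared with DMSO-treated control wells. The BRD4 degrader dBET6 served as the positive control.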
Tests used:
[1] = target: XPO1 (intron 15 mScarlet tag, HAP1) (UniProt O14980); assay: XPO1 fluorescence intensity change vs DMSO (log2 fold change); higher = more XPO1 protein; conditions: 6 h
[2] = target: BRD4 (intron 10 mScarlet tag, HAP1) (UniProt O60885); assay: BRD4 median nuclear fluorescence intensity change vs DMSO (log2 fold change); higher = more BRD4 protein; conditions: 6 h

Sequences of proteins named here, by UniProt entry; tags and fusion partners are left off.
UniProt O14980, whole entry: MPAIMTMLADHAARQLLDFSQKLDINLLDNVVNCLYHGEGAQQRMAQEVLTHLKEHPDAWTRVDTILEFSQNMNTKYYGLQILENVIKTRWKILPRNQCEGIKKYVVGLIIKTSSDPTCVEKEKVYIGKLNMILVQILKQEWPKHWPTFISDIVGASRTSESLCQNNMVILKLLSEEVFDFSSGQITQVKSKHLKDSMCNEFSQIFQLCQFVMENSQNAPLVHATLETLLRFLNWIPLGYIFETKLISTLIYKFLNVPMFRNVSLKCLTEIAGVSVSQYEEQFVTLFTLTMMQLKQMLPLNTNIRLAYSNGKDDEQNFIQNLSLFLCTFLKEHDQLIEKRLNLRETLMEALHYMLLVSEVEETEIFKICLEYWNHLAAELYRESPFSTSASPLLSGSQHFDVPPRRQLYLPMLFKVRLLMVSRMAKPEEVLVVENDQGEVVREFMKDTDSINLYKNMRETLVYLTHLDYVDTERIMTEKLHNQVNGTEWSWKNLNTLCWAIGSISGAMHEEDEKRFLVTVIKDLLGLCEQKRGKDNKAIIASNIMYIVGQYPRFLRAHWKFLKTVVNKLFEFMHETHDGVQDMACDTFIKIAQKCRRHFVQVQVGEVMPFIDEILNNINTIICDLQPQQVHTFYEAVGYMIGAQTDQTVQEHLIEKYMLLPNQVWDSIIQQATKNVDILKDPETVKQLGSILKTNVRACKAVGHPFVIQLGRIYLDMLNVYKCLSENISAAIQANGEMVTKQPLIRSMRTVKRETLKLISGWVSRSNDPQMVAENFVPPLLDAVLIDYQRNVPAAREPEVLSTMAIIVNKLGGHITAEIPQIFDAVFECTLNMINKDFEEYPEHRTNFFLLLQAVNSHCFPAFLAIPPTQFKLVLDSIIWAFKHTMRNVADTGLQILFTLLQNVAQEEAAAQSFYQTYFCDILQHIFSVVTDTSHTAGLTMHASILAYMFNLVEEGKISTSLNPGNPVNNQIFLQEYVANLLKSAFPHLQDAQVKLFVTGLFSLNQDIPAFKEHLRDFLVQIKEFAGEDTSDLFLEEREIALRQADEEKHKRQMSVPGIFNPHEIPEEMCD

How did the “XPO1 fluorescence intensity change (log2)” value [1] turn out when COCCCN1C(=O)C(=O)c2cc(Br)ccc21 (10 µM) was run?
Its value is 0.0332.

What about the “BRD4 median nuclear fluorescence intensity change (log2)” value [2] of the same compound?
Its value is 0.0653.

Which results are given for CCCCn1c(=O)[nH]c(=O)c2c1nc(CCl)n2CCC(C)C (10 µM)?
XPO1 fluorescence intensity change (log2) [1]: 0.00468; BRD4 median nuclear fluorescence intensity change (log2) [2]: 0.12

How did the “XPO1 fluorescence intensity change (log2)” value [1] turn out when COc1cccc2cc(-c3csc(Nc4ccc(O)cc4)n3)c(=O)oc12 (10 µM) was run?
Its value is 0.06.

What about the “BRD4 median nuclear fluorescence intensity change (log2)” value [2] of the same compound?
Its value is -0.0895.

With COc1cc(C(=O)OCCOc2ccccc2F)cc(OC)c1OC (10 µM) as the compound, how does the “XPO1 fluorescence intensity change (log2)” value [1] read?
The value was -0.0348.

What about the “BRD4 median nuclear fluorescence intensity change (log2)” value [2] of the same compound?
The value was 0.016.

For O=C1NC(c2cc(Cl)c3c(c2)OCO3)Nc2ccccc21 (stereo not drawn) (10 µM), which “XPO1 fluorescence intensity change (log2)” value [1] is on record?
The value was -0.0691.

What about the “BRD4 median nuclear fluorescence intensity change (log2)” value [2] of the same compound?
Its value is -0.107.

What does the source list for O=C(Cc1c(F)cccc1Cl)Nc1nc(-c2ccccn2)cs1 (10 µM)?
XPO1 fluorescence intensity change (log2) [1]: 0.104; BRD4 median nuclear fluorescence intensity change (log2) [2]: 0.0531

How did the “XPO1 fluorescence intensity change (log2)” value [1] turn out when COc1ccc2c(c1)CCCN(C(=O)C(C)Sc1ccccn1)C2 (stereo not drawn) (10 µM) was run?
Its value is -0.14.

What about the “BRD4 median nuclear fluorescence intensity change (log2)” value [2] of the same compound?
The value was 0.0903.

Which results are given for O=C(COc1ccccc1Cl)Nc1ccc(C(=O)Nc2cccnc2)cc1 (1 µM)?
XPO1 fluorescence intensity change (log2) [1]: -0.0276; BRD4 median nuclear fluorescence intensity change (log2) [2]: 0.0646

For Cc1cccc(C)c1CNc1cc(C(N)=O)ccc1CN(C)C (1 µM), which “XPO1 fluorescence intensity change (log2)” value [1] is on record?
The value was -0.0263.

What about the “BRD4 median nuclear fluorescence intensity change (log2)” value [2] of the same compound?
Its value is -0.0281.

With Cc1cnn(C(CCl)CN(Cc2nc3ccc(Cl)cc3c(=O)[nH]2)Cc2nc3ccc(Cl)cc3c(=O)[nH]2)c1 (stereo not drawn) (10 µM) as the compound, how does the “XPO1 fluorescence intensity change (log2)” value [1] read?
Its value is 0.0399.

And the “BRD4 median nuclear fluorescence intensity change (log2)” value [2]?
The value was -0.0107.

How did the “XPO1 fluorescence intensity change (log2)” value [1] turn out when CC(C)CC(=O)Nc1ccc(-c2cn3ccccc3n2)cc1 (10 µM) was run?
Its value is 0.134.

What about the “BRD4 median nuclear fluorescence intensity change (log2)” value [2] of the same compound?
The value was 0.000298.

With CCn1c(-c2nonc2N)nc2c(C#CC(C)(C)O)ncc(OC[C@H]3CCCNC3)c21 (20 µM) as the compound, how does the “XPO1 fluorescence intensity change (log2)” value [1] read?
The value was -0.178.

What about the “BRD4 median nuclear fluorescence intensity change (log2)” value [2] of the same compound?
The value was -0.00864.

Which results are given for N#Cc1ccc(NC(=O)C2(C(F)(F)F)CCN(Cc3ccccc3)C2)cc1 (stereo not drawn) (10 µM)?
XPO1 fluorescence intensity change (log2) [1]: -0.0326; BRD4 median nuclear fluorescence intensity change (log2) [2]: 0.00466

Which results are given for CCOC(=O)c1c(NC(=O)COc2ccccc2OCC)sc2c1CC(C)(C)NC2(C)C (10 µM)?
XPO1 fluorescence intensity change (log2) [1]: -0.118; BRD4 median nuclear fluorescence intensity change (log2) [2]: -0.0135

CCNc1nc(-c2cccnc2)nc2sc(C)c(C)c12 (10 µM) was tested. Which “XPO1 fluorescence intensity change (log2)” value [1] did it give?
The value was 0.177.

And the “BRD4 median nuclear fluorescence intensity change (log2)” value [2]?
Its value is 0.0466.

How did the “XPO1 fluorescence intensity change (log2)” value [1] turn out when O=C(CCc1cccnc1)NCc1ccc(-c2ccc(Br)cc2)o1 (0.1 µM) was run?
The value was 0.0305.

What about the “BRD4 median nuclear fluorescence intensity change (log2)” value [2] of the same compound?
The value was 0.0756.

Which “XPO1 fluorescence intensity change (log2)” value [1] does the source give for O=C(Nc1cccc2cccnc12)c1ccccc1-c1ccccc1 (10 µM) here?
Its value is -0.0475.

And the “BRD4 median nuclear fluorescence intensity change (log2)” value [2]?
Its value is -0.0881.

CCc1ccc(C(=O)Nc2sccc2C(N)=O)cc1 (10 µM) was tested. Which “XPO1 fluorescence intensity change (log2)” value [1] did it give?
The value was -0.11.

And the “BRD4 median nuclear fluorescence intensity change (log2)” value [2]?
The value was 0.00864.

Cc1nc(-c2ccc(NC(=O)c3ccco3)cc2)cs1 (1 µM) was tested. Which “XPO1 fluorescence intensity change (log2)” value [1] did it give?
The value was -0.00433.

And the “BRD4 median nuclear fluorescence intensity change (log2)” value [2]?
Its value is 0.0187.

COc1ccc(C(C)(C)C)cc1NC(=O)c1cc(OC)c2c(c1)OCCO2 (10 µM) was tested. Which “XPO1 fluorescence intensity change (log2)” value [1] did it give?
Its value is -0.0591.

What about the “BRD4 median nuclear fluorescence intensity change (log2)” value [2] of the same compound?
The value was 1.68e-05.

CC(c1nc2ccccc2c(=O)[nH]1)N(C)Cc1nc2ccccc2c(=O)[nH]1 (stereo not drawn) (10 µM) was tested. Which “XPO1 fluorescence intensity change (log2)” value [1] did it give?
The value was 0.0131.

And the “BRD4 median nuclear fluorescence intensity change (log2)” value [2]?
Its value is 0.0596.

CC(C)NS(=O)(=O)c1ccc(C(=O)Nc2cc(N(C)C)ccc2C#N)cc1 (10 µM) was tested. Which “XPO1 fluorescence intensity change (log2)” value [1] did it give?
Its value is 0.0065.

And the “BRD4 median nuclear fluorescence intensity change (log2)” value [2]?
Its value is 0.0239.

For CCOC(=O)c1ccsc1NC(=O)CN(CC)Cc1ccc(OC)c(F)c1 (10 µM), which “XPO1 fluorescence intensity change (log2)” value [1] is on record?
Its value is -0.0392.

And the “BRD4 median nuclear fluorescence intensity change (log2)” value [2]?
Its value is 0.0461.

Which “XPO1 fluorescence intensity change (log2)” value [1] does the source give for CCC(C)(C)C1CCC(=NNc2ccccn2)CC1 (stereo not drawn) (10 µM) here?
The value was 0.018.

And the “BRD4 median nuclear fluorescence intensity change (log2)” value [2]?
Its value is 0.309.

For CCc1sc(C(=O)OCC(=O)NCc2ccco2)cc1C (10 µM), which “XPO1 fluorescence intensity change (log2)” value [1] is on record?
The value was -0.0417.

What about the “BRD4 median nuclear fluorescence intensity change (log2)” value [2] of the same compound?
Its value is 0.0813.

What does the source list for O=C(c1ccccc1)N1c2ccccc2C=CC1c1c[nH]c2ccccc12 (stereo not drawn) (0.1 µM)?
XPO1 fluorescence intensity change (log2) [1]: -0.0716; BRD4 median nuclear fluorescence intensity change (log2) [2]: 0.072

With O=C(/C=C/c1ccc(Cl)cc1)c1ccc(O)c(CCCl)c1 (1 µM) as the compound, how does the “XPO1 fluorescence intensity change (log2)” value [1] read?
The value was -0.165.

And the “BRD4 median nuclear fluorescence intensity change (log2)” value [2]?
The value was -0.0388.

With O=C(/C=C/c1cccc(Br)c1)c1ccc(O)c(CCCl)c1 (0.1 µM) as the compound, how does the “XPO1 fluorescence intensity change (log2)” value [1] read?
The value was 0.0508.

What about the “BRD4 median nuclear fluorescence intensity change (log2)” value [2] of the same compound?
The value was 0.0197.

Which “XPO1 fluorescence intensity change (log2)” value [1] does the source give for CCCN1C(=O)C(=O)c2cc(Cl)ccc21 (10 µM) here?
The value was -0.0118.

And the “BRD4 median nuclear fluorescence intensity change (log2)” value [2]?
The value was 0.17.

With Cc1ccccc1OCCN(C)C(=O)Nc1ccc2c(c1)OCO2 (10 µM) as the compound, how does the “XPO1 fluorescence intensity change (log2)” value [1] read?
The value was -0.0227.

And the “BRD4 median nuclear fluorescence intensity change (log2)” value [2]?
Its value is 0.093.

Which results are given for CCCCN1C(=O)C(O)(c2c(C)nn(CCO)c2N)c2ccccc21 (stereo not drawn) (1 µM)?
XPO1 fluorescence intensity change (log2) [1]: -0.0737; BRD4 median nuclear fluorescence intensity change (log2) [2]: 0.0207

What does the source list for CC(=O)Nc1ccc(C(=O)Nc2nc(-c3c(C)[nH]c4ccccc34)cs2)s1 (10 µM)?
XPO1 fluorescence intensity change (log2) [1]: -0.00424; BRD4 median nuclear fluorescence intensity change (log2) [2]: -0.0041

Which results are given for CC(=O)NCCc1nc2ccccc2n1CCCOc1cc(C)ccc1C(C)C (10 µM)?
XPO1 fluorescence intensity change (log2) [1]: -0.11; BRD4 median nuclear fluorescence intensity change (log2) [2]: -0.0327

Which “XPO1 fluorescence intensity change (log2)” value [1] does the source give for Cc1cccc(N2CCN(C(=O)c3c(-c4ccccc4)noc3C)CC2)c1C (10 µM) here?
The value was -0.261.

And the “BRD4 median nuclear fluorescence intensity change (log2)” value [2]?
The value was -0.031.

For O=C(Nc1ccncc1)N1CCc2c(Br)cccc2C1 (10 µM), which “XPO1 fluorescence intensity change (log2)” value [1] is on record?
The value was 0.0641.

What about the “BRD4 median nuclear fluorescence intensity change (log2)” value [2] of the same compound?
Its value is 0.0488.

Which “XPO1 fluorescence intensity change (log2)” value [1] does the source give for Cc1nn(-c2ccccc2)c2c1CC(C#N)(c1ccccn1)C1CCCCN21 (stereo not drawn) (10 µM) here?
The value was -0.204.

What about the “BRD4 median nuclear fluorescence intensity change (log2)” value [2] of the same compound?
The value was 0.0209.

How did the “XPO1 fluorescence intensity change (log2)” value [1] turn out when O=C(NCc1noc(CCl)n1)c1ccccc1 (1 µM) was run?
The value was -0.111.

And the “BRD4 median nuclear fluorescence intensity change (log2)” value [2]?
Its value is -0.0746.

With O=c1[nH]c(=O)n([C@H]2C[C@H](O)[C@@H](CO)O2)cc1F [floxuridine] (10 µM) as the compound, how does the “XPO1 fluorescence intensity change (log2)” value [1] read?
The value was 0.0681.

What about the “BRD4 median nuclear fluorescence intensity change (log2)” value [2] of the same compound?
Its value is 0.132.

With Cc1ccc(NC(=O)CCC(=O)N/N=C/c2ccc([N+](=O)[O-])o2)cc1C (10 µM) as the compound, how does the “XPO1 fluorescence intensity change (log2)” value [1] read?
The value was -0.0276.

What about the “BRD4 median nuclear fluorescence intensity change (log2)” value [2] of the same compound?
The value was 0.0277.
